Reference: PubChem BioAssay AID1259405 (NCATS, 2018)
The deposit covers about 50,000 reagents; this is a part drawn at random. About 4,000 of all reagents (8%) were called active. 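Mouse siRNA library applied to hamster cells; one well for each siRNA.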 Reagents against one gene are numbered here. Further read-outs or replicates are left out here. No sequences are given here.

Aim: 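Knock-downs that lift recombinant protein yield in hamster ovary cells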 (primary screen)
System: Chinese hamster CHO-K1 ovary cells with stable secreted eGFP expression
Reagent: single siRNA against mouse genes, 0.8 pmol siRNA per well (2 µl of 400 nM stock)
Timing: 3 days
Detection: 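Percent of the per-plate non-targeting control median for intracellular GFP per well by laser scanning cytometry and for cell viability by ATP luminescence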
Reading the numbers: GFP, % of control: higher = more GFP per well, higher productivity
Active means: 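Called active when intracellular GFP, relative to negative control, is at or above 120%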

GFP, % of control, by target and reagent
Afmid (GeneID 71562): #1 69.1 inactive; #2 71.3 inactive; #3 55.9 inactive
Coro6 (GeneID 216961): #1 53.8 inactive; #2 99.1 inactive; #3 74 inactive
Defb5 (GeneID 81007): #1 108 inactive; #2 94.3 inactive; #3 95.4 inactive
Tmem135 (GeneID 72759): #1 80.2 inactive; #2 125 active; #3 101 inactive
Wdr19 (GeneID 213081): #1 101 inactive; #2 104 inactive; #3 88.8 inactive
Or6c76 (GeneID 258321): #1 99.1 inactive; #2 61.7 inactive; #3 111 inactive
Pold4 (GeneID 69745): #1 87.3 inactive; #2 68.8 inactive
Pan3 (GeneID 72587): #1 73.3 inactive; #2 74.8 inactive
Grhl1 (GeneID 195733): #1 55.9 inactive; #2 79.6 inactive; #3 118 inactive
Vapa (GeneID 30960): #1 163 active; #2 61 inactive
Fam111a (GeneID 107373): #1 104 inactive; #2 46.7 inactive; #3 84.6 inactive
Gm266 (GeneID 212539): #1 72 inactive; #2 48.1 inactive; #3 79.2 inactive
Tert (GeneID 21752): #1 98.1 inactive; #2 56.6 inactive
Btrc (GeneID 12234): #1 45.2 inactive; #2 93.6 inactive; #3 105 inactive
Inpp5b (GeneID 16330): #1 78.2 inactive; #2 56.4 inactive; #3 101 inactive
Lao1 (GeneID 100470): #1 87 inactive; #2 77.8 inactive; #3 53.2 inactive
Piga (GeneID 18700): #1 103 inactive; #2 91.7 inactive; #3 58.6 inactive
Pemt (GeneID 18618): #1 116 inactive; #2 37.4 inactive; #3 88.4 inactive
Sh3glb1 (GeneID 54673): #1 66.3 inactive; #2 53.3 inactive; #3 0 inactive
Cyp3a13 (GeneID 13113): #1 63.9 inactive; #2 29.8 inactive; #3 46.8 inactive
BC023105 (GeneID 667597): #1 64.2 inactive; #2 32.7 inactive; #3 44.7 inactive

5 consecutive records from above, quoted:
GFP, % of control, by target and reagent
Btrc (GeneID 12234): #3 105 inactive
Inpp5b (GeneID 16330): #1 78.2 inactive; #2 56.4 inactive; #3 101 inactive
Lao1 (GeneID 100470): #1 87 inactive
